# Measured values published in doi:10.1101/2024.09.02.610668 (bioRxiv, 2024).
# The chains behind the UniProt entries cited, without tags or fusion partners.
# UniProt Q9NZN8: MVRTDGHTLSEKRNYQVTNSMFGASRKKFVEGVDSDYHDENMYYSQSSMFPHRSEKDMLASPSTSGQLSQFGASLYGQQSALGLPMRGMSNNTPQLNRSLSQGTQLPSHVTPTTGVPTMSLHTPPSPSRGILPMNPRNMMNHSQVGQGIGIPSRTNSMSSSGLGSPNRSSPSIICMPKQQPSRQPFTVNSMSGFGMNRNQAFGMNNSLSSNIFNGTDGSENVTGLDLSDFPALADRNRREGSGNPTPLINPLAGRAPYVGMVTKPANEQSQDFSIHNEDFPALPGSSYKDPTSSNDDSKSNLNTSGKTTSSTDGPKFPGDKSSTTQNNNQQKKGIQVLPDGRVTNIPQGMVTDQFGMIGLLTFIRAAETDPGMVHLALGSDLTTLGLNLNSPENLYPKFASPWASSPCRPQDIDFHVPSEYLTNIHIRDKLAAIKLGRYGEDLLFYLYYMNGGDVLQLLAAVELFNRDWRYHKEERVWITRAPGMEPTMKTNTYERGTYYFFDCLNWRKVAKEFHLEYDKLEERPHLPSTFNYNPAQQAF
# UniProt O75175: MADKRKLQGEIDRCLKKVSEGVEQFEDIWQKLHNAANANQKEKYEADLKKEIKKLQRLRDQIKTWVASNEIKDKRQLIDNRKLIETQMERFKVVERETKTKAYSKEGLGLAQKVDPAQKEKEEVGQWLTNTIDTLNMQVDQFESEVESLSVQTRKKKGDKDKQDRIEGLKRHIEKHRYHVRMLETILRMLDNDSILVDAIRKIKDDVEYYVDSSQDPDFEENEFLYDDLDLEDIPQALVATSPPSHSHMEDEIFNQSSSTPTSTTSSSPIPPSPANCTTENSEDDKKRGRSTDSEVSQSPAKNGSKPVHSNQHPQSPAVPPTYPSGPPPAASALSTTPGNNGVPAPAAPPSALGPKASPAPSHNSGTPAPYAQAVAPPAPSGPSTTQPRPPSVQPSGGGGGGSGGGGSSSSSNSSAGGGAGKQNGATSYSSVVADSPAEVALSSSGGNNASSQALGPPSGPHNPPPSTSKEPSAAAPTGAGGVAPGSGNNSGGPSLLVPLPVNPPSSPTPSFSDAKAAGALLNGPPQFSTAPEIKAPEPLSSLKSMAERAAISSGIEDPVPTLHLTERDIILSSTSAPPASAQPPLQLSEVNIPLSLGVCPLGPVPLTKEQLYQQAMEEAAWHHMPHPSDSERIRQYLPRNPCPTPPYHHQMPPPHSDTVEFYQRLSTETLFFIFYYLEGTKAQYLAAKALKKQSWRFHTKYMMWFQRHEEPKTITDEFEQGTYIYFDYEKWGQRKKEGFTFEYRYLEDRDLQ
# UniProt Q92600: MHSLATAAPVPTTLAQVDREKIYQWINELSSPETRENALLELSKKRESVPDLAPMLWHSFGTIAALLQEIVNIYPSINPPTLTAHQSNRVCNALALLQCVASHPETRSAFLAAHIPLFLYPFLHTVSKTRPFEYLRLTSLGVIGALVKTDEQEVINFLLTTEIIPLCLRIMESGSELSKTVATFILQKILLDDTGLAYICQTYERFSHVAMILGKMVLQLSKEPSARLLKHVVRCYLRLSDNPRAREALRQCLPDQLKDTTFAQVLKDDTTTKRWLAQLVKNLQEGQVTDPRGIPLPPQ
# Where two headings read alike, the source gives them in different places. These are yes or no findings as the source states them, for the method shown. Some results given as binding are weak or reduced against the parent protein; the word gives no strength.
# How the values were obtained:
# Test in all cases: cross-linking
# [1] = target: CNOT2, subunit of the recombinant human CCR4-NOT complex (human) (UniProt Q9NZN8)
# [2] = target: CNOT2, subunit of the recombinant human CCR4-NOT complex (human) (UniProt Q9NZN8); remark: listed apart in the source
# [3] = target: CNOT3, subunit of the recombinant human CCR4-NOT complex (human) (UniProt O75175)
substance,measurement,setting,value
"CNOT3, subunit of the recombinant human CCR4-NOT complex (from UniProt O75175 1-753)",binding,[1],binds
same,binding,[2],binds
"CNOT9, subunit of the recombinant human CCR4-NOT complex (from UniProt Q92600 1-299)",binding,[3],binds
